The target of test [1] is T1, murine CSF-1R on M-NFS-60 cells (murine) (UniProt P09581).
T1 sequence (looked up): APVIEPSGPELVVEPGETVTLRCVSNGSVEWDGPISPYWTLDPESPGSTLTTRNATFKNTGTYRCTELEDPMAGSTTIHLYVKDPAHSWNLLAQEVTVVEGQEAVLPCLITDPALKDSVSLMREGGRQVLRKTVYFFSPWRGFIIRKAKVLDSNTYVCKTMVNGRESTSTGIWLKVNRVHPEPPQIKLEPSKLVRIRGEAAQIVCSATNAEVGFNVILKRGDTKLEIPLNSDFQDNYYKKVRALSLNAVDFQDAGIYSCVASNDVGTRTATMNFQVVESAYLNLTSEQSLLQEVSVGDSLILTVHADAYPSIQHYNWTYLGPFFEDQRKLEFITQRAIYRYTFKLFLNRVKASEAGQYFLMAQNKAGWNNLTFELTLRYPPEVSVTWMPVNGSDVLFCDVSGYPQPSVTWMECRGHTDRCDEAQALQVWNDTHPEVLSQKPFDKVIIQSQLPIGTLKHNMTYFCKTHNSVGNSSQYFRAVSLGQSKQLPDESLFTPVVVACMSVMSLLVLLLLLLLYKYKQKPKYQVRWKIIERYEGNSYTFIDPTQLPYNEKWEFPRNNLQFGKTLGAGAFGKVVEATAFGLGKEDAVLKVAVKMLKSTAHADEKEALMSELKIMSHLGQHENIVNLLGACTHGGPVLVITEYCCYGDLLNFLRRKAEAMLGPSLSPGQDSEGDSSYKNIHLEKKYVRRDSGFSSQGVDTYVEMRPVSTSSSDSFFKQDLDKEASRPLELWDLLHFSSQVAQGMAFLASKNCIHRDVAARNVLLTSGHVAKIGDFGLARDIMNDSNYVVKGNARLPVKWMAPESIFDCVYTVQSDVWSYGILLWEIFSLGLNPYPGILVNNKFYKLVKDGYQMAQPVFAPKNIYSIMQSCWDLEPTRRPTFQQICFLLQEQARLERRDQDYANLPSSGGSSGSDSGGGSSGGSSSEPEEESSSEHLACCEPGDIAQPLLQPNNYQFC
Kind of test: flow cytometry on M-NFS-60 cells. (In general: Flow cytometry measures light scatter and fluorescence of single cells or particles in a stream.)

The target of test [2] is T1, murine CSF-1R on M-NFS-60 cells (murine). Kind of test: flow cytometry on M-NFS-60 cells; 0.5 ug/ml recombinant murine CSF-1, detected with biotinylated anti-murine CSF-1 antibody and Alexafluor 488 streptavidin.

No constants are given. Whether binding was seen depends on the method and setting. Some entries that bind do so weakly or less than the wild type.

B1: recombinant murine CSF-1 (ligand, UniProt P07141 33-187, looked up)
chain: KEVSEHCSHMIGNGHLKVLQQLIDSQMETSCQIAFEFVDQEQLDDPVCYLKKAFFLVQDIIDETMRFKDNTPNANATERLQELSNNLNSCFTKDYEEQNKACVRTFHETPLQLLEKIKNFFNETKNLLEKDWNIFTKNCNNSFAKCSSRDVVTKP
On to B1, for which the binding entry in test [1] and in test [2] was “binds” in each case.
